Test results taken from the RNAGym collection of RNA variant scans (doi:10.1126/science.aae0568).
Variants at the floor of the assay are shown more often than the library holds them.

B1: tRNA (parent)
chain: GUUCCGUUGGCGUAAUGGUAACGCGUCUCCCUCCUAAGGAGAAGACUGCGGGUUCGAGUCCCGUACGGAACG

Variants of: B1
Assay: yeast fitness relative to wild type (ratio to wild type); higher = fitter; tRNA-Arg(CCU), competitive growth, 37 C, YPD
Outline: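 A pool of Saccharomyces cerevisiae strains, each with a tRNA-Arg(CCU) gene variant at the native genomic locus, was competed in YPD at 37°C for 24 hours across six parallel replicates. The variants had been chemically synthesised at a 3% per-site mutation rate over 69 sites, and gene amplicons before and after competition were read by 100-nucleotide paired-end sequencing. Darwinian fitness relative to wild type rested on changes in genotype frequencies. Genotypes required ≥ 100 starting reads, and estimates < 0.5 were set to 0.5.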

Variant	yeast fitness
G9A U16A A42C U53C C62A	≤ 0.5
G9A U16C A20C C27G A45U C55U	≤ 0.5
G9A U16C C29G C31A C33G G41A A43G C61U	≤ 0.5
G9A U19A C31U U59C	≤ 0.5
G9A U28C A37U U47A C61U	0.871
G9C A14C	≤ 0.5
G9C A14C A42G C60A	≤ 0.5
G9C A14G C34U U64A	≤ 0.5
G9C A14G G67C	≤ 0.5
G9C A14G U26A U32G A70G	≤ 0.5
G9C A14U U28G U32A C66U	≤ 0.5
G9C A15G G48A C55U	≤ 0.5
G9C A15U C31U G51C G56A C62G	≤ 0.5
G9C A20G U35C A36G	≤ 0.5
G9C A21G G44C U47C A70U	≤ 0.5
G9C A21U U54A A70G	≤ 0.5
G9C A36C	≤ 0.5
G9C A42G C62G	≤ 0.5
G9C C27A G56C	≤ 0.5
G9C C27U U47C C55U C62G A69U	≤ 0.5
G9C C30G U54A	≤ 0.5
G9C C31G A40C A70U	≤ 0.5
G9C C31U G39A A57C	≤ 0.5
G9C G10C A36U G44A C46G C49U	≤ 0.5

Variant	yeast fitness
G9C G10C U35A G38A C61G	≤ 0.5
G9C G12A U35C C49U	≤ 0.5
G9C G12C A40U G41A	≤ 0.5
G9C G18C C33A C34G A45G	≤ 0.5
G9C G23A A45G C62U C66U	≤ 0.5
G9C G39C A40G	≤ 0.5
G9C U13C C27U C46G	≤ 0.5
G9C U13C C31G A65U	≤ 0.5
G9C U16G C29G U35C A40G	≤ 0.5
G9C U16G C60A	≤ 0.5
G9C U16G C66G	≤ 0.5
G9C U19G A57G	≤ 0.5
G9C U28A A40C U47C G52A	≤ 0.5
G9C U28A A45C G48C A69U	≤ 0.5
G9C U47G U64C	≤ 0.5
G10A A15C C24U A36C A43U G67C	≤ 0.5
G10A A20U A42G C60U U64A C66A G68A A69G	≤ 0.5
G10A A21C C24A C66A	≤ 0.5
G10A A21C C34G G52A C61A	≤ 0.5
G10A A21G C29A G67C	≤ 0.5
G10A A21U U28A C33U C55A	≤ 0.5
G10A A37U C61G C66G	0.623
G10A A57U U59A A65C G67A	≤ 0.5
G10A C11A A70U	≤ 0.5

Variant	yeast fitness
G10A C11G U26A U35A G48C	≤ 0.5
G10A C11U A15G C30U U47C C61G	≤ 0.5
G10A C24U C29U C30G U53C	≤ 0.5
G10A C29G A36G A65C	≤ 0.5
G10A C29G C33U G63A U64C	≤ 0.5
G10A C29G U35G C61U	≤ 0.5
G10A C29U C30G C34A C49G	≤ 0.5
G10A C30A U32C G41C C60G A70U	≤ 0.5
G10A C30U G50A C66U	≤ 0.5
G10A C34G	≤ 0.5
G10A C34G A69U	≤ 0.5
G10A C34U	≤ 0.5
G10A C49A G50A	≤ 0.5
G10A C55G A65C	≤ 0.5
G10A G12A A14G C31A C34G G38C G44C U53C	≤ 0.5
G10A G12A U16A G18A A45U	≤ 0.5
G10A G17A A36G A40C C55A	≤ 0.5
G10A G17A A36G A40C C62U	≤ 0.5
G10A G38A A57G	≤ 0.5
G10A G58A	0.767
G10A U13A C24A A57U C61U	≤ 0.5
G10A U13C G18C C61G C66U A69C	≤ 0.5
G10A U16C C31U A57C	≤ 0.5
G10A U64C A69C	≤ 0.5

Variant	yeast fitness
G10C A14U U19A C22U C62A	≤ 0.5
G10C A20G C24U G38C G41A G56C	≤ 0.5
G10C A20G C24U G39C	≤ 0.5
G10C A20U A57U	≤ 0.5
G10C A21C C30A U32C C60U G67C	≤ 0.5
G10C A21G G23A C29A	≤ 0.5
G10C C11A G18A U32A C46G C60U	≤ 0.5
G10C C11U C22G U53G	≤ 0.5
G10C C22G C29A C46U	≤ 0.5
G10C C24A G51A A65G A70C	0.55
G10C C24G A42C U53G G67C	≤ 0.5
G10C C24U C34G A65C	≤ 0.5
G10C C27U A43G A69U	≤ 0.5
G10C C29A C33A C61G	≤ 0.5
G10C C29G G39A C55A	≤ 0.5
G10C C30G A65C G68C	≤ 0.5
G10C C31A A40U C46U G68U	≤ 0.5
G10C C34A A57U	0.577
G10C C46U C49A C60A A70C	≤ 0.5
G10C C49U A65G	≤ 0.5
G10C G12A A15G G63A	0.643
G10C G18A C27G G63C	≤ 0.5
G10C G23C C30A G48C G52C A57C G58A	≤ 0.5
G10C G25C G44C G58A	≤ 0.5

Variant	yeast fitness
G10C G44U	0.587
G10C G58A C66G	≤ 0.5
G10C U13C A21G A40G	≤ 0.5
G10C U19A A37C	0.502
G10C U26A C33U G67A	≤ 0.5
G10C U26C C30U C31G A43G	≤ 0.5
G10C U26C C66U	≤ 0.5
G10C U28A C46G G50C	≤ 0.5
G10C U47C G67C	0.536
G10C U47G C62G G68A	≤ 0.5
G10U G17A C31G	≤ 0.5
C11A A14C C34A G58C	≤ 0.5
C11A A20G C46U G50C	≤ 0.5
C11A A20G G56A	≤ 0.5
C11A A20U U28A C31G G39C U47G C49U G67A	≤ 0.5
C11A A40C G41C	≤ 0.5
C11A A42C G63C	≤ 0.5
C11A A42G C61U	≤ 0.5
C11A C22G A70C	≤ 0.5
C11A C22U U26G C27U A40U G48C	≤ 0.5
C11A C24G C49U A69C	≤ 0.5
C11A C24U C62A	≤ 0.5
C11A C27U A70U	≤ 0.5
C11A C29G G44A G56C C62A G67C	≤ 0.5

Variant	yeast fitness
C11A C31A A45U	≤ 0.5
C11A C31U C46A A70G	≤ 0.5
C11A C55G	0.535
C11A C66A	≤ 0.5
C11A G18C C27G A57G	≤ 0.5
C11A G23C C33U A43U A45C	≤ 0.5
C11A G25C G38A	≤ 0.5
C11A G63A	0.681
C11A G63A A65C	≤ 0.5
C11A U16A C29G A42C G51A A70U	≤ 0.5
C11A U16C U32G A65G	≤ 0.5
C11G A14C G18C C29G U54A	≤ 0.5
C11G A14G A15U G23C	≤ 0.5
C11G A14U A43U G48A	≤ 0.5
C11G A14U C34A A57G	0.642
C11G A15C A37U G68C	≤ 0.5
C11G A15U C22U A42G C61A	≤ 0.5
C11G A15U C24G A40G	≤ 0.5
C11G A20G G58A	≤ 0.5
C11G A20G U32A C62U	≤ 0.5
C11G A20U C24G C60G G68C	≤ 0.5
C11G A21G G38C G41C C60G	≤ 0.5
C11G A36C A37G G56A	≤ 0.5
C11G A36C C61U	≤ 0.5

Variant	yeast fitness
C11G A36U A42G A43C C49U A57U A65C	≤ 0.5
C11G A36U C46G C62A A69C	≤ 0.5
C11G A42C A69G	≤ 0.5
C11G A42U C49U C62U	≤ 0.5
C11G C22G A37U	≤ 0.5
C11G C22G C33G U47C	≤ 0.5
C11G C27U A40G U47A G52C	≤ 0.5
C11G C27U C33G G52A	≤ 0.5
C11G C27U U47A G52C A65G	≤ 0.5
C11G C29G G38A G44A C46U C62G	≤ 0.5
C11G C29G U32G G38A U53C	≤ 0.5
C11G C29U A65U	≤ 0.5
C11G C30G C61A C62G	≤ 0.5
C11G C30U U35C C46G G58C	≤ 0.5
C11G C33U A36G C55G	≤ 0.5
C11G C49A A57U U64A G67U	≤ 0.5
C11G G25A C60A C62U G68C	≤ 0.5
C11G G39C C55U	≤ 0.5
C11G G51C U59G	≤ 0.5
C11G U13G A21G C27U	≤ 0.5
C11G U16A A21U G23C A57U	≤ 0.5
C11G U16A C29U U53C C62G	≤ 0.5
C11G U28C U47C C60A G67A	≤ 0.5
